Laboratory results: patent US12357632B2, “Methods of treating cholangiocarcinoma” (QED Therapeutics, Inc., priority 2019, dated 2025)

Key:
[1] = test system: FGFR3-mutated VEx-MR086M1 patient-derived ureter carcinoma xenograft; experiment: Antitumor activity in Vex-MR086M1 patient-derived xenograft in nude mice; format: in vivo, Mouse (Mus musculus); conditions: erdafitinib 15 mg/kg PO qdx21
Description: The patient's tumor and the Patient-Derived Xenograph (PDX) have a FGFR3 mutation (S249C).
Tumors of the same passage were transplanted subcutaneously onto 3-24 mice (donor mice, passage (n−1)). When these tumors reached 1470 to 1688 mm^3, donor mice were sacrificed by cervical dislocation, tumors were aseptically excised and dissected. After removing necrotic areas, tumors were cut into fragments measuring approximately 20 mm^3 and transferred in culture medium before grafting. […]
(§1) Tumor volume was evaluated by measuring perpendicular tumor diameters, with a caliper, three time a week during the treatment period. […]
(§2) Individual tumor growth delays (TGD) was calculated as the time in days required for individual tumors to reach 3- to 5-fold the initial tumor volume.
(§3) The tumor growth delay index (TGDI) was calculated as the median growth delay in the treated group divided by the median growth delay in the control group.
(§4) The percentage ratio between the mean tumor volume of a treated group (T) and the mean tumor volume of the control group (C) was calculated.
The tumor growth rate was evaluated by the formula DT/T0 where DT is the difference in tumour volume (TV) between the considered day and the day of enrolment and T0 is mean TV at D0. […]

[2] = test system: FGFR3-mutated UREx-MR2057PD-AR patient-derived ureter carcinoma xenograft; experiment: Antitumor activity in UREx-MR2057PD-AR patient-derived xenograft in nude mice; format: in vivo, Mouse (Mus musculus); conditions: erdafitinib 15 mg/kg PO qdx21
Description: The UREx-MR2057PD-AR model was established from a metastatic lesion of a patient with urothelial carcinoma after progression under treatment with Erda. The treatment history before Erda is unknown but likely involved surgery and then non-targeted chemotherapy. The patient's tumor harbors an FGFR3 mutation, FGFR3 S249C (serine at amino acid 249 is mutated to cysteine), which is a known oncogenic mutation in the FGFR3 extracellular immunoglobulin-like domain that results in constitutive activation of the FGFR3 receptor.
Tumors of the same passage were transplanted subcutaneously onto 3-24 mice (donor mice, passage (n−1)). […]
as §1, §2, §3, §4
The tumor growth rate was evaluated by the formula [Ty/Tx]−1 where Ty is mean tumor volume at the considered day and Tx is mean TV at DX. […]

COc1cc(OC)cc(N(CCNC(C)C)c2ccc3ncc(-c4cnn(C)c4)nc3c2)c1 [Erdafitinib, reference compound]
antitumor activity compared to control group (words) [1]: slight antitumor activity
antitumor activity compared to control group (words) ([1]; listed as erdafitinib): statistically significant tumor growth inhibition
antitumor activity compared to control group (words) [2]: did not show any antitumor activity
antitumor activity compared to control group (words) ([2]; listed as erdafitinib): did not demonstrate any statistically significant tumor growth inhibition
